For two substances, binding results are on record in PMC4456659.

Amino acid sequences for entries named in this document (tags omitted). Residues count along the entry.
UniProt O75460, residues 19-977: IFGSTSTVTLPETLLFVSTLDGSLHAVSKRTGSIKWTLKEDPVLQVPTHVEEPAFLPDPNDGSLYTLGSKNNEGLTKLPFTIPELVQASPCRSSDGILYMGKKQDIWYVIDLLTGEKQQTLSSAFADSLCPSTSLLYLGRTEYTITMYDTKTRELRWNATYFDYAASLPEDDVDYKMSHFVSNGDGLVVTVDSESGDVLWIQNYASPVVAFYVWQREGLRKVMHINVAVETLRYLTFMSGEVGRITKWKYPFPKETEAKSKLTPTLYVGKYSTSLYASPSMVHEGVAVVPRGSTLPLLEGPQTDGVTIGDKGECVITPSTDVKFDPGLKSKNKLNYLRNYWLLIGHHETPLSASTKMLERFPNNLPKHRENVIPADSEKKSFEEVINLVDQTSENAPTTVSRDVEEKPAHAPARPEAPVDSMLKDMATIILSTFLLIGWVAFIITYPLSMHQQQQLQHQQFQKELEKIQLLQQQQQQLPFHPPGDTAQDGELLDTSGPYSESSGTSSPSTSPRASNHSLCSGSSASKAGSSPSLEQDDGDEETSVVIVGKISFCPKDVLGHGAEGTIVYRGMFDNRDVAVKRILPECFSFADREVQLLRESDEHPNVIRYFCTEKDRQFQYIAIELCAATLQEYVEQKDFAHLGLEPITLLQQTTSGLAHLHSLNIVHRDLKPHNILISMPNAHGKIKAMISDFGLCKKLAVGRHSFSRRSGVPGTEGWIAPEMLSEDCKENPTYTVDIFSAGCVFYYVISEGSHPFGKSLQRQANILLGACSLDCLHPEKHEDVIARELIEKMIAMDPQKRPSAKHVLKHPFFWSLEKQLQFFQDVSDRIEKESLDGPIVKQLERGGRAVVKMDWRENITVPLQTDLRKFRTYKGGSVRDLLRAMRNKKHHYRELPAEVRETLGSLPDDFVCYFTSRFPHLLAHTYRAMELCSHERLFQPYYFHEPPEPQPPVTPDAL
UniProt P60468: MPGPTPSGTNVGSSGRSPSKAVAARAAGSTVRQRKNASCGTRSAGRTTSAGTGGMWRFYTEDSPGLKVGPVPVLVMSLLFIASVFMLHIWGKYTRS
UniProt Q9UGP8: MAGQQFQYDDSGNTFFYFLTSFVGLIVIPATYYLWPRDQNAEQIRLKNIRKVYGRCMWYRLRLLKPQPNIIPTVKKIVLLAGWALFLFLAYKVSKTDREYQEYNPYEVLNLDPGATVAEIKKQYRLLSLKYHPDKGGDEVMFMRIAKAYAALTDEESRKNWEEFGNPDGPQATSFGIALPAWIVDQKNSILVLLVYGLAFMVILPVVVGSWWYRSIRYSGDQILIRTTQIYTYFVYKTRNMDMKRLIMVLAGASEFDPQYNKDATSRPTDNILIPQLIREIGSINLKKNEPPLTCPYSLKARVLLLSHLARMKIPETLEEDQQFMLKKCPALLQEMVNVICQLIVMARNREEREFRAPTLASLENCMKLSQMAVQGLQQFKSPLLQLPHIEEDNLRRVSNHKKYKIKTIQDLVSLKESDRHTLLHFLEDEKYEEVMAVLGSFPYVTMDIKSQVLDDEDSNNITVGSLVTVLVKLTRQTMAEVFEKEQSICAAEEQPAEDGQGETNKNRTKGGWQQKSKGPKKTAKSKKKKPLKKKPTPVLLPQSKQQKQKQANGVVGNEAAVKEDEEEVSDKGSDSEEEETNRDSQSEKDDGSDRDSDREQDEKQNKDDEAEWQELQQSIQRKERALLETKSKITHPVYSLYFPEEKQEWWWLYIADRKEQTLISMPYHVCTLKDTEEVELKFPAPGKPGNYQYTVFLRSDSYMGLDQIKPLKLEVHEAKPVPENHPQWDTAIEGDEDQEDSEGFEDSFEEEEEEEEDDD

No constants are given. Whether binding was seen depends on the method and setting. Binding seen in cells or lysates may run through a third protein. These calls come from enrichment with a bait or labelling near it, and not all partners need be listed.

The experiment has as its target HA-tagged Ire1α (human) (UniProt O75460). In words: affinity purification with mass spectrometry; 1% digitonin extract of microsomes from HEK 293 cells stably expressing Ire1α-HA (250 ng/ml doxycycline, 48 hr) bound to anti-HA agarose, washed with 0.2% digitonin, eluted with 0.1 M glycine pH 2.3; bands absent from the control identified by mass spectrometry.

In the case of “Sec61β (endogenous, HEK 293) (from UniProt P60468 1-96)”, the binding entry is listed as “binds”.

With Sec63 (from UniProt Q9UGP8 1-760), the binding entry is “binds”.
